PMC8353798

Chains of the proteins cited; added tags and fusions are not shown.
UniProt P51858: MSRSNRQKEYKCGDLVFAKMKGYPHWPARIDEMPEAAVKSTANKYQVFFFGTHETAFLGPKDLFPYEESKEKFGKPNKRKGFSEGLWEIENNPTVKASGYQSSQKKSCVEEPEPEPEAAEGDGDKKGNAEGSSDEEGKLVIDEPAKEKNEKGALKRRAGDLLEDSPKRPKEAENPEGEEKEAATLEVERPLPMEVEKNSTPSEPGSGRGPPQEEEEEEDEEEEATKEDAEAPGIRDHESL
UniProt P40763: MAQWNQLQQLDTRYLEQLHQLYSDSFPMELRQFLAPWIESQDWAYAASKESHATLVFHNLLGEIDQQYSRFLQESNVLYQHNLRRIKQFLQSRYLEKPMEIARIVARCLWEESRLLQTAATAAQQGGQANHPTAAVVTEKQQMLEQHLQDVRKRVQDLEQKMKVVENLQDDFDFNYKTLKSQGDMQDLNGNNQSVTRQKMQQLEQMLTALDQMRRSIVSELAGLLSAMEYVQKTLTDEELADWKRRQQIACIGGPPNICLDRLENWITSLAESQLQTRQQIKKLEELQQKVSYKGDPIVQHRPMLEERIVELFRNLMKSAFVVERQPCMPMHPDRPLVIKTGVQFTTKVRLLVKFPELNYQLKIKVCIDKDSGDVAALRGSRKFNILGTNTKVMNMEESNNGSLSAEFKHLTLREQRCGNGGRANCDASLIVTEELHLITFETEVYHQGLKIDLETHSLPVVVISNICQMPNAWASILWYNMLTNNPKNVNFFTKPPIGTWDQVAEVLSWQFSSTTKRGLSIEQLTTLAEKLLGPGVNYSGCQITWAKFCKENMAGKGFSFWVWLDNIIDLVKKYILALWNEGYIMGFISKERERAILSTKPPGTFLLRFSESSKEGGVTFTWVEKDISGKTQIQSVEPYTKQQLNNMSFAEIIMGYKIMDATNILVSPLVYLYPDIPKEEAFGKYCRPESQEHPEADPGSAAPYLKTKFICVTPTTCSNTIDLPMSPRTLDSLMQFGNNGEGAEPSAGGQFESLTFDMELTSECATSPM

Molecular target: Flag-tagged HDGF (UniProt P51858)
Assay: affinity purification with mass spectrometry; Flag pull-down from MDA-MB-231 cells overexpressing Flag-tagged HDGF or a Flag-GFP control, silver staining, LC-MS/MS

With STAT3 (from UniProt P40763 1-770) as the substance, how does the binding read?
Its binding is “binds”.

No constants are given. Whether binding was seen depends on the method and setting. In cells and extracts the contact can be indirect. A yes stands for co-enrichment or nearness to the bait. Other partners may have been found.
